Not every detail of the peptide structures is certain; ends, links or a residue may be inferred. Where a SMILES comes first, the peptide text is derived from it.
Tested on: platelet aggregation
Experiment: Inhibition of platelet aggregation (collagen or ADP), overall comparison
Assay type: cell-based
Conditions: from dose-response relationships

**Q.** For `CC[C@H](C)[C@H](N)C(=O)N[C@@H](C)C(=O)N[C@@H](CCCNC(=N)N)C(=O)NCC(=O)N[C@@H](CC(=O)O)C(=O)N[C@@H](CCSC)C(=O)N[C@@H](CC(N)=O)C(=O)N[C@@H](C)C(=O)O` [Peptide P-1, Ile-Ala-Arg-Gly-Asp-Met-Asn-Ala] (H-IARGDMNA-OH), which “Inhibitory potencies (comparison, rank order)” value is on record?
**A.** comparable with that of the Arg-Gly-Asp-Ser peptide
